Experimental data reported in article PMC7819943, “Rice protein-binding microarrays: a tool to detect cis-acting elements near promoter regions in rice”.
The list shows a part of the results.

Chains of the proteins cited; added tags and fusions are not shown.
UniProt Q0JBA9, entry or part of it: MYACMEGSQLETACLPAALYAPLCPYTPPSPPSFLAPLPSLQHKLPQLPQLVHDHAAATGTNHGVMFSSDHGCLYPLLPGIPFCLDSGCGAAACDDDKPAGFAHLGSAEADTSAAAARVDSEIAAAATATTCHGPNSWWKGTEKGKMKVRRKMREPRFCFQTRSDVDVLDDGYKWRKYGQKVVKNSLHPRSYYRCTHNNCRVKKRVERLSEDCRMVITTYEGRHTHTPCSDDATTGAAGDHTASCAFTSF

Each sequence was assayed against OsWRKY34 (Oryza sativa, UniProt Q0JBA9 1-250) (assay: protein-binding microarray (RPBM); PBS, 2% BSA, 51.3 ng/ul salmon testes DNA, 50 uM zinc acetate, 200 nM TF, 25 C, 1 h; high values mean tight binding). Details: protein: recombinant; tags: N-terminal polyhistidine and DsRed monomer fusion (pET32a); label: CyDye5-dUTP incorporated in the synthesized complementary strand; 3' TTTTT single-stranded linker to array surface; dsDNA, one strand shown.
Outline: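 The binding signal is fluorescence intensity per array feature (arbitrary units). Readings came from an Axon 4000B scanner after a washed, 2% BSA-blocked, double-stranded custom Agilent array had been incubated for 1 h at 25 °C with 200 nM protein and 50 µM zinc acetate. The protein was a Ni–NTA-purified transcription factor fused N-terminally to polyhistidine and DsRed, expressed in E. coli BL21-CodonPlus.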

Row | Sequence | binding signal
1 | CGGCTAGAGTGGTGGTGGTGGTGGTGGTGGCGTCGAGATGCGGAGTCACCTAGTGCAG | 11700 fluorescence intensity (a.u.)
2 | TCAAGTCATGCCAACCTAGCATAGTAGCTTGATCTTCTTTCGGAGTCACCTAGTGCAG | 9370 fluorescence intensity (a.u.)
3 | GCCCGCCGCCGTCTACTCCTCTCCCGCGCCGCCGGCCGCCCGGAGTCACCTAGTGCAG | 8950 fluorescence intensity (a.u.)
4 | CCACTCCGTCGCGTCGCCGTCACCTCCGCCCAGGAATCCGCGGAGTCACCTAGTGCAG | 8490 fluorescence intensity (a.u.)
5 | ATTTGCTATCATTTTTAACTTTATCTTTTTTTGGTAAAGTCGGAGTCACCTAGTGCAG | 8820 fluorescence intensity (a.u.)
6 | GTTCTGCCTTTGTTTCATCGGACAATCTATGGATCGACTCCGGAGTCACCTAGTGCAG | 10800 fluorescence intensity (a.u.)
7 | CCAGCTTATCCATCCTCATCCTCACACAAGCGAATCCGGTCGGAGTCACCTAGTGCAG | 11800 fluorescence intensity (a.u.)
8 | CACTACTTCACATGCAACACCGCACTCACACATCCTCGAACGGAGTCACCTAGTGCAG | 12500 fluorescence intensity (a.u.)
9 | GACTTTTCAACACATGACTGCATTGGCTGCTTGATATCGCCGGAGTCACCTAGTGCAG | 8100 fluorescence intensity (a.u.)
10 | TGCCGCCTCCTCTTCTTTCGCCTATCCTTCTTCAGCACAACGGAGTCACCTAGTGCAG | 8300 fluorescence intensity (a.u.)
11 | AGAGAGAGAGAGCCCGTGAGGTGTGGCTGGAATCGTCATGCGGAGTCACCTAGTGCAG | 8360 fluorescence intensity (a.u.)
12 | CGGGCGGGGCGGGGCGGGTTCGCTCGTCGGATGTGTGGATCGGAGTCACCTAGTGCAG | 23900 fluorescence intensity (a.u.)
13 | ATATATATATATATATATATATATATATATGTGTGTGTGTCGGAGTCACCTAGTGCAG | 12600 fluorescence intensity (a.u.)
14 | CCGCGCATTTTTTTGGTTCGAAATTCCTTTGCTAAGCAAACGGAGTCACCTAGTGCAG | 8380 fluorescence intensity (a.u.)
15 | GAACTGTAAAGTCTGTTGTTTGGATCCTCTGCATATTGTTCGGAGTCACCTAGTGCAG | 8420 fluorescence intensity (a.u.)
16 | AGTGCAACTCCTGTTGTGTGTTCTTGGTCATCGTCTTCATCGGAGTCACCTAGTGCAG | 9780 fluorescence intensity (a.u.)
17 | CTCTCACAGGCTCTTCACCATTTCGTGCAATCTCGTCGACCGGAGTCACCTAGTGCAG | 9720 fluorescence intensity (a.u.)
18 | AATTTTTTCCTGCTCTATCAATAGAACTTCGCACCGTCTCCGGAGTCACCTAGTGCAG | 8050 fluorescence intensity (a.u.)
19 | GTTTATCTCTATCTTTTTTTCATCTTCTCTCTATATATATCGGAGTCACCTAGTGCAG | 11000 fluorescence intensity (a.u.)
20 | AGCCTCGTCTTCTTGCACCGCCGCCGCCGACCCTTGCGTACGGAGTCACCTAGTGCAG | 8790 fluorescence intensity (a.u.)
21 | GAGGCCTATATTCTTTTCTGTATCCGGCCCGGCCGGCCCACGGAGTCACCTAGTGCAG | 12100 fluorescence intensity (a.u.)
22 | AAATCTACATGTACACAAATCTTTGATGCAATGCAATATTCGGAGTCACCTAGTGCAG | 8140 fluorescence intensity (a.u.)
23 | CGAAAAGTAAAGTTATTTGGCTACCGGGTGTTTTTAATTTCGGAGTCACCTAGTGCAG | 8300 fluorescence intensity (a.u.)
24 | TTATTGCATCTGTTTCACTGTGTTGCTCGGCCAAACGTACCGGAGTCACCTAGTGCAG | 11300 fluorescence intensity (a.u.)
25 | TCCCAGGGAGGTAGCAGCCCAGTCATTTCCTTGGTTTTTTCGGAGTCACCTAGTGCAG | 8530 fluorescence intensity (a.u.)
26 | GGATGGGGATGCCAGTTGTGGGATGGCGCAAGGATCTCTCCGGAGTCACCTAGTGCAG | 10400 fluorescence intensity (a.u.)
27 | ATCCTCGTCTACATTCACTGTACCACACCACAAAATATTTCGGAGTCACCTAGTGCAG | 8430 fluorescence intensity (a.u.)

Row | Sequence | binding signal
28 | TCATCAATTTCTAACGCTGGTCTTATGTGCTAATTAACTTCGGAGTCACCTAGTGCAG | 8790 fluorescence intensity (a.u.)
29 | GCCACCACCTGCCTCACTGCCACGTGGAGCCCGCACCACCCGGAGTCACCTAGTGCAG | 9850 fluorescence intensity (a.u.)
30 | CCCCACACGGCCACACCTCGCGCCGGCTCCCTCCTCGCGTCGGAGTCACCTAGTGCAG | 8790 fluorescence intensity (a.u.)
31 | AAAGTATAGATATTCTACTTTATTTTGGTTTTGTATTAGTCGGAGTCACCTAGTGCAG | 8280 fluorescence intensity (a.u.)
32 | TGGATCATCCGGCTTCTGTTTTTCTCTCCACCACATATCTCGGAGTCACCTAGTGCAG | 10100 fluorescence intensity (a.u.)
33 | GTGCTAGTGTGTGTGGGTGTGGGAGGAGGGGCTCCCCGCGCGGAGTCACCTAGTGCAG | 14700 fluorescence intensity (a.u.)
34 | GATCTGTTCTTTGTTTGATTTATTTTTCTAATTTGTTGTTCGGAGTCACCTAGTGCAG | 8270 fluorescence intensity (a.u.)
35 | ATATGGTAGAGCTGTTCCTGTCCGTTTCTAATCCGTTTTCCGGAGTCACCTAGTGCAG | 9850 fluorescence intensity (a.u.)
36 | TGGTACACAAGTGATGCTTTGGTCTCTAACCTGATACTACCGGAGTCACCTAGTGCAG | 8530 fluorescence intensity (a.u.)
37 | ATATAAATTTCCCTATCGACCCTACATAGGGCGGGCATATCGGAGTCACCTAGTGCAG | 8500 fluorescence intensity (a.u.)
38 | CGGTGCTACTTCTTGCCTATACCTCGCAACTTCTCTCATGCGGAGTCACCTAGTGCAG | 9040 fluorescence intensity (a.u.)
39 | GATGTGCCCTTTATTCACAACATTTAACAATTGTTACTTGCGGAGTCACCTAGTGCAG | 8520 fluorescence intensity (a.u.)
40 | TCCAACCCAACCCCAACCCACACCCACACGGCCCAAACCCCGGAGTCACCTAGTGCAG | 8480 fluorescence intensity (a.u.)
41 | AACCTGTGCATTTTTGCGCAAATGTGCATATTGTTCTATCCGGAGTCACCTAGTGCAG | 8700 fluorescence intensity (a.u.)
42 | AGTGATGTGTGTGCTTGTGTGTGCTCTACTTCTACTCGTCCGGAGTCACCTAGTGCAG | 12000 fluorescence intensity (a.u.)
43 | GACCCCGTCGCCTGCCGCCGCCGACCTCACCACCTTCAGACGGAGTCACCTAGTGCAG | 10000 fluorescence intensity (a.u.)
44 | ACTCCTTTTCGTTTGCCTCCTATTTTCGAGTCACATAACACGGAGTCACCTAGTGCAG | 8260 fluorescence intensity (a.u.)
45 | AGCACTAGCACGAGCCCATCATCCACCCCTCAACTCCACTCGGAGTCACCTAGTGCAG | 8750 fluorescence intensity (a.u.)
46 | GAGTTAGTGTGGCTTTTGCCTTTCTGTTCCTTGCATCATGCGGAGTCACCTAGTGCAG | 10700 fluorescence intensity (a.u.)
47 | ATTCACACTCCACTTCACTCGCTCACGCTTCGCCGTCCGCCGGAGTCACCTAGTGCAG | 9230 fluorescence intensity (a.u.)
48 | CTCCCGCAACTTCACCGTCTCGTCTCATCTCATCTCGTCTCGGAGTCACCTAGTGCAG | 10000 fluorescence intensity (a.u.)
49 | CCGGCGACGAATTGCTGCAGGGGCGGTTCTTCTTCTTCGTCGGAGTCACCTAGTGCAG | 9490 fluorescence intensity (a.u.)
50 | GCTTTTGCATTGCCATTGTTTACCCAAATGTTGTAAGCATCGGAGTCACCTAGTGCAG | 8310 fluorescence intensity (a.u.)
51 | AAACATCATCTACTCATCTCTCTTTTATTTTTCTTTTATTCGGAGTCACCTAGTGCAG | 8160 fluorescence intensity (a.u.)
52 | TCGGTGGTCTTCTTGTTTTTCCTTCTGTATGTCAATCCTACGGAGTCACCTAGTGCAG | 14700 fluorescence intensity (a.u.)
53 | GGTTGTGTGAGATCGATGGTATATTTCCGTAAAAATAATTCGGAGTCACCTAGTGCAG | 9370 fluorescence intensity (a.u.)
54 | CTACTCCTCTCTGATTCCCTTGGCCAATTGTCCCTGGATGCGGAGTCACCTAGTGCAG | 8980 fluorescence intensity (a.u.)

Individual results from the entries so far:
TGGTACACAAGTGATGCTTTGGTCTCTAACCTGATACTACCGGAGTCACCTAGTGCAG – binding signal: 8530 fluorescence intensity (a.u.)
AAACATCATCTACTCATCTCTCTTTTATTTTTCTTTTATTCGGAGTCACCTAGTGCAG – binding signal: 8160 fluorescence intensity (a.u.)
